# Earlier results in patent publication US20030044472A1, “METHOD AND SYNERGISTIC COMPOSITION FOR TREATING ATTENTION DEFICIT/HYPERACTIVITY DISORDER” (DexGen-Intellectual Property, Homocysteine, Inc., priority 2001, published 2003).
# For at least one compound, name, drawing or mass did not settle the structure.
# Tested on: ADHD children
# Conditions: double blind clinical study
structure (smiles),measurement,value
"CN(C)CCO [DMAE, Dimethylaminoethanol]",test score improvements vs. placebo,significant test score improvements
